## Percent effect of library compounds

By UniProt entry, the sequences of proteins in these tests, tags left out. Residues count along the entry.
UniProt P9WNZ1, whole entry: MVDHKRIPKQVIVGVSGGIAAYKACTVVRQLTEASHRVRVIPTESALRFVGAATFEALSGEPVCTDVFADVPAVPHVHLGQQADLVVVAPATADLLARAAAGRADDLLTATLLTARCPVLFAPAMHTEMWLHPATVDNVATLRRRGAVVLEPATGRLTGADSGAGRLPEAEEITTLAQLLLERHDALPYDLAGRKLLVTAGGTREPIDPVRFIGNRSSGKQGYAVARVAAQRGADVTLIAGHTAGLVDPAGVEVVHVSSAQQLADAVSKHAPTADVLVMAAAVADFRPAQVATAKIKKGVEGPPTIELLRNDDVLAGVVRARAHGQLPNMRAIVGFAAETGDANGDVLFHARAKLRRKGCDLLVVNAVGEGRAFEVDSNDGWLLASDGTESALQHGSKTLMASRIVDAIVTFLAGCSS
UniProt P9WFT3, whole entry: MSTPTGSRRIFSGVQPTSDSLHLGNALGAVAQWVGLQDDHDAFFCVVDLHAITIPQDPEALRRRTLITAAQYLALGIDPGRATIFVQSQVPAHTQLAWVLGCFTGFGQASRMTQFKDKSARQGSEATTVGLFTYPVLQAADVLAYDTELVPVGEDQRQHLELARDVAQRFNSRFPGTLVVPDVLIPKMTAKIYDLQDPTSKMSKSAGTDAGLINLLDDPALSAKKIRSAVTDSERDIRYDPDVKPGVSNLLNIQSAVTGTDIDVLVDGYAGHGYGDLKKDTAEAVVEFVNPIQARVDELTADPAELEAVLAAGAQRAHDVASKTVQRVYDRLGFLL
UniProt A4I591, 1-473: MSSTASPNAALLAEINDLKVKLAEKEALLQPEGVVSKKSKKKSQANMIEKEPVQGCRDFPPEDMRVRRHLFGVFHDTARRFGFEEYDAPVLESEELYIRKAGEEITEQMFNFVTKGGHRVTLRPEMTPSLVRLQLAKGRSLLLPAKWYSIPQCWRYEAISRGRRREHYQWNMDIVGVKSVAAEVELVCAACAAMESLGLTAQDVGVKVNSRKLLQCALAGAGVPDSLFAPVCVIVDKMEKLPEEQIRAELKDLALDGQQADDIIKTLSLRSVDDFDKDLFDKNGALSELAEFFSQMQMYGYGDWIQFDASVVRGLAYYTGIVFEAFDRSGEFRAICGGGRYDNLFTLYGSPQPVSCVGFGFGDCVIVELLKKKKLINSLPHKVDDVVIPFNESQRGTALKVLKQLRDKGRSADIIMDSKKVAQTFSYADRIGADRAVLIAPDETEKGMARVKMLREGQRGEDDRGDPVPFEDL

CoaBC: 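Enzyme assay of CoaBC with a phosphate dye (Biomol Green) read at 650 nm. Target: Coenzyme A biosynthesis protein CoaBC, Mycobacterium tuberculosis (UniProt P9WNZ1). Tested at 30 µM. Direction is inferred from only a few compounds that gave an IC50; most scored high, so higher reads as stronger inhibition. Most strong results did not repeat in a second test. About 67,000 compounds were tested under these conditions; 0.06% (about 40) showed 50% or more at least once.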
Toxoplasma: 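Assay of Toxoplasma gondii numbers, read through their beta-galactosidase reporter with a colour substrate. Concentration: 10 µM. Higher reads as fewer parasites (inferred from which compounds were picked for retests). Size under these conditions: about 67,000 compounds, about 260 of them at 50% or above in at least one test.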
Leishmania in macrophages: 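Cell assay of Leishmania donovani living inside macrophages; the read-out is not stated. Concentration: 30 µM. Direction is inferred from retests: higher values go with stronger inhibition. Of about 69,000 compounds tested this way, about 1,000 (1.5%) reached 50% or more in at least one test.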
MtTrpRS: 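Enzyme assay of tryptophanyl-tRNA synthetase; the read-out is not stated. Target: Tryptophan-tRNA ligase, Mycobacterium tuberculosis (UniProt P9WFT3). Concentration: 10 µM. Higher most likely means stronger inhibition; the record gives no direction and few retests gave an IC50. Size under these conditions: about 65,000 compounds, about 64 of them at 50% or above in at least one test.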
LiHisRS: 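Histidine-tRNA ligase, Leishmania infantum (UniProt A4I591). Enzyme assay of histidyl-tRNA synthetase; the read-out is not stated. Concentration: 30 µM. Higher reads as stronger inhibition (inferred: compounds with an IC50 in retests scored well above the rest). The assay is labelled LdHisRS but filed under L. infantum. About 69,000 compounds were tested under these conditions; 0.6% (about 410) showed 50% or more at least once.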

Results are given as percent effect.
The record does not define 0% and 100%; most values in the screen are far below 50% and negative numbers occur (in some assays of this library far below -100).
The compounds are a random part of those screened.
Two or more numbers in one place are separate tests of the same structure; such repeats can differ widely.
A dash means the value is not listed here; it may have been measured.

SMILES	CoaBC	Toxoplasma	Leishmania in macrophages	MtTrpRS	LiHisRS
O=C(O)C(F)(F)F.O=C(O)C(F)(F)F.[H][C@]12C[C@H](C(=O)NC)N(C(C)C)[C@@]1([H])CN(C(=O)c1ccc(C)nc1)C2	-	-8.511%	5.433%	-	-
[H][C@@]12CCC(=O)N(c3ccccc3)[C@]1([H])CCN2C(=O)c1cccs1	-	11.18%	35.98%	-	-
Cc1cncc(C2CCN(Cc3ccc(S(C)(=O)=O)cc3)CC2)n1	6.053%	4.131%	-26.96%	1.893%	11.19%
CCCn1cc(-c2cc(C(=O)N(C)C)c3cccc(C)c3n2)cn1	4.207%	-1.443%	9.095%	-0.757%	5.882%
Cc1cc(CC(=O)NCC(O)COc2ccc(F)c(F)c2)n[nH]1 (stereo not given)	5.488%	4.824%	-2.849%	-3.576%	8.791%
CS(=O)(=O)N1CCC2(CC1)CC(CC(=O)N1CCCC1)c1ccccc12 (stereo not given)	3.218%	-12.5%	-9.204%	5.849%	15.69%
CCCS(=O)(=O)N1C[C@@H](Oc2ncccc2F)[C@H]2OCCC[C@H]21	-5.138%	-	-	3.562%	8.219%
CC(C)c1nnc2sc(CC3CN(C(C)C)CCO3)nn12 (stereo not given)	2.554%	-4.742%	-45.36%	3.337%	12.99%
CCN(CC)C1CCN(C(=O)c2cc3cc(C)cc(C)c3nc2C)CC1	3.828%	-	-	-2.865%	5.755%
CCCc1nc(CNc2cccc(C(=O)N3CCCC(O)C3)c2)no1 (stereo not given)	13.94%	5.263%	-5.68%	0.149%	19.18%
Cc1ccc(C(=O)N2Cc3c(CN4CCCCC4)nn(C)c3C2)o1	-5.308%	-	-	-0.2513%	6.195%
CC(c1ccccn1)N(C)Cc1ccc(-n2ccnc2)cc1 (stereo not given)	-1.728%	-9.679%	-11.75%	-0.000014%	15.38%
Cc1cc(NCCS(C)(=O)=O)nc2ccccc12	1.266%	3.662%	25.68%	-3.66%	16.88%
CCCNC(=O)C1(Cc2cc(-c3ccccc3)no2)CCN(C(C)=O)C1 (stereo not given)	3.155%	-12.95%	2.271%	9.373%	4.286%
CCOCc1nc2c(c(NCc3cc(C)on3)n1)CCN(C(C)=O)CC2	1.08%	2.664%	11.66%	1.546%	6.612%
COc1cccc(CC(=O)N2CCc3ncnc(NC(C)C)c3CC2)c1	9.512%	-4.142%	-70.29%	-6.016%	7.519%
O=C1NCCCCC1NC(=O)C1(c2ccccc2)CCOCC1 (stereo not given)	-0.1212%	-0.7023%	8.254%	-2.155%	16.13%
CN(Cc1ccccc1O)C(=O)Nc1cc(F)cc(N2CCCC2)c1	10.07%	18.66%	13.55%	-4.914%	15.49%
Cc1cccnc1CN1CC[C@H](Oc2cccc(F)c2)[C@@](C)(O)C1	3.155%	-9.968%	-1.189% & 1.171%	-	1.449%
Cl.Cl.Fc1ccc2c(c1)C1(CCNCC1)CC2NC1CC1 (stereo not given)	-	-3.89%	27.52%	-	-
CN(C)C(=O)N1CCC2(CCCN(c3ncccn3)C2)C1.O=C(O)C(F)(F)F (stereo not given)	-	23.99%	3.954%	-	-
CCN1CC2(CCC1=O)CCN(Cc1cc(F)ccc1Cl)CC2	-3.342%	8.66%	10.92%	6.386%	8.333%
CCn1nccc1CNC(=O)NC1CCCCC1	-5.455%	6.599%	-7.716%	-10.02%	0.9434%
CC(C)N(C)C(=O)C1CCC2(CCNCC2)O1.Cl (stereo not given)	-	-4.519%	-6.301%	-	-
CCN1C[C@H]2CCN(c3ncccn3)CC[C@H]2S1(=O)=O	1.613%	-	-	0.4647%	22.22%
O=C(CCCOc1ccc(F)cc1F)N1CCCC1Cn1cccn1 (stereo not given)	5.175%	-13.75%	14.17%	-1.462%	13.64%
COCCN(C)CCN1CC2(CCN(C3CCNCC3)CC2)OC1=O	-1.086%	-10.54%	28.72%	-0.6522%	16.8%
O=C(NCc1ccccn1)[C@@H]1COC[C@H]2CN(C3CCOCC3)C[C@H]21	2.314%	-	-	1.133%	6.015%
COCC1CCN(c2ccnc3ccsc23)C1 (stereo not given)	-3.777%	5.72%	38.32%	-1.877%	9.333%
Cc1ncc2c(n1)CN(CC(O)COc1ccc(C#N)cc1)CC2 (stereo not given)	-3.566%	4.661%	9.413%	0.3749%	25.4%
O=C(Cc1cccs1)N1C[C@@H]2COC[C@]2(COCc2cccnc2)C1	1.474%	-	-	-3.426%	15.04%
CC(C)Cc1nc(OCC(=O)O)c(C#N)c2c1CCC2	-9.556%	3.586%	13.36%	1.608%	3.883%
CCc1nc(CN2CCCN(C(=O)C3CCOCC3)CC2)cs1	5.684%	-0.8979%	-21.44%	1.154%	15.09%
CC(C)OCc1ccccc1CNC(=O)C(C)(C)C	9.764%	14.43%	-1.682%	-2.194%	7.447%
Cc1sc2ccccc2c1S(=O)(=O)NCCNC(=O)C(C)C	3.777%	-4.066%	1.694%	2.055%	20%
CCSCCNC(=O)c1cnc(-c2ccccc2)nc1O	16.67%	0.3748%	3.952%	0.9721%	41.67%
Cc1noc(C)c1CC(=O)OCc1nc(N)c2ccccc2n1	-15.77%	2.967%	14.25%	-0.55%	24.37%
FC(F)(F)c1cccc(OC2CCN(Cc3ncc[nH]3)CC2)c1	-9.218%	13.81%	17.17%	3.778%	13.33%
COC(=O)C(NC(=O)c1ccco1)c1cc(F)ccc1F (stereo not given)	-2.169%	1.8%	9.471%	0.7194%	13.7%
Cc1nccn1-c1ccc(=O)n(CCNC(=O)Cc2ccccc2)n1	3.874%	21.8%	-6.892%	2.846%	19.57%
CC(C)c1nccn1C1CCCN(C(=O)CCCc2ccccn2)C1 (stereo not given)	1.695%	-0.3251%	18.85%	-7.012%	16.67%
O=C(Cc1cnc(-c2c(Cl)cccc2Cl)s1)N1CCOCC1	-1.928%	-7.048%	20.94%	0.712%	64.84%
CC(C)NC(=O)N1CCCn2cnc(CO)c2C1	5.008%	-	-	5.713%	22.34%
CN(C)S(=O)(=O)NCC1OCCc2cn(CC3CCOCC3)nc21 (stereo not given)	7.536%	5.795%	-4.884%	5.771%	26.32%
CC(=O)NCCNC(=O)CN1CCCCC1Cn1cncn1 (stereo not given)	2.362%	-29.12%	3.828%	-13.07%	3.39%
CCCNC(=O)Cn1c(-n2nc(C)cc2C)nc(CCC)cc1=O	-1.083%	14.11%	-14.27%	-0.8804%	11.24%
CN(CC(=O)Nc1ccc(Br)cn1)C(=O)C(C)(C)C	0.2611%	15.28%	25.07%	-3.397%	15.52%
COCCOCC(=O)N1CCc2cc(Cl)cc(Cl)c2C1	2.284%	3.246%	12.25%	0.8393%	15.29%
COc1cc(CNC(=O)c2cc(S(C)(=O)=O)ccc2C)ccn1	-1.636%	16.6%	7.656%	0.8541%	16.81%
CN(C)C(=O)CCC(=O)NCc1cccnc1-n1cnc2ccccc21	6.579%	-6.556%	15.31%	-4.762%	7.619%
O=C1[C@H]2CN(Cc3ccncc3)C[C@H]2CN1c1ccsc1	-7.505%	-	-	5.271%	19.27%
O=C1CC[C@@H]2[C@@H](CCN2Cc2ccncc2)N1c1ccccc1	0.3807%	-	-	-5.561%	9.434%
Cc1nc(N2CCCC2)nc2c1CCN(C(=O)CC1CC1)CC2	0.4038%	-5.619%	29.83%	3.417%	17.48%
Clc1ccc(CN(CCN2CCOCC2)Cc2cccnc2)c(Cl)c1	11.19%	6.977%	3.044%	-5.855%	15.6%
CCN(C)C(=O)c1coc(COc2ccccc2)n1	7.006%	2.358%	8.128%	-5.611%	-4.425%

3 of the entries, repeated:

Result for COC(=O)C(NC(=O)c1ccco1)c1cc(F)ccc1F (stereo not given) was CoaBC: -2.169%; Toxoplasma: 1.8%; Leishmania in macrophages: 9.471%; MtTrpRS: 0.7194%; LiHisRS: 13.7%.
Result for O=C1NCCCCC1NC(=O)C1(c2ccccc2)CCOCC1 (stereo not given) was CoaBC: -0.1212%; Toxoplasma: -0.7023%; Leishmania in macrophages: 8.254%; MtTrpRS: -2.155%; LiHisRS: 16.13%.
Result for CCc1nc(CN2CCCN(C(=O)C3CCOCC3)CC2)cs1 was CoaBC: 5.684%; Toxoplasma: -0.8979%; Leishmania in macrophages: -21.44%; MtTrpRS: 1.154%; LiHisRS: 15.09%.

The values are deposited in ChEMBL (CHEMBL3988442, “University of Dundee, Small-Polar-MMV Screening Library” (2021)).